Laboratory results as given in patent US5478809A (Takeda Chemical Industries, Ltd., priority 1992, dated 1995).

Assay: general procedure: solution-phase peptide synthesis; DEPC/triethylamine; HONB/DCC; HONB/DIC; HOBT/DIC
[1] = late stage modification step, hydrochloride

With “(2R,6R)-2-Myr-amino-6,7-bis(PamO)-4-THT-Glu(O^t Bu)-Gly-D-Glu(O^t Bu)-O^t Bu” the step yield (coupling step) was “yield 93%”.

Substance “(2R,6R)-N^δ -(2-Pam-amino-6,7-bis(PamO)-4-THT)-N^α -Boc-Orn-Gly-Gly-Glu(O^t Bu)-O^t Bu” has a step yield (lipidation step) of 65%.

Work on “(2R,6R)-N^δ -(2-Pam-amino-6,7-bis(PamO)-4-THT)-Orn-Gly-Gly-Glu-OH hydrochloride” yielded a step yield [1] of 96%.

With “(2R,6S)-2-Myr-amino-6,7-bis(PamO)-4-THT-Gly-Gly-Gly-Glu(O^t Bu)-Thr(^t Bu)-Thr(^t Bu)-O^t Bu” the step yield (lipidation step) was “yield 89%”.

With “(2R,6S)-2-Myr-amino-6,7-bis(PamO)-4-THT-Gly-Gly-Gly-Glu-Thr-Thr-OH” the step yield (late stage modification step) was “yield 99%”.

In the case of “Fmoc-Dhc(Pam)2 -Gly-Gly-Gly-Glu(O^t Bu)-Thr(^t Bu)-Thr(^t Bu)-O^t Bu”, the step yield (coupling step) is reported as 97%.

In the case of “H-Dhc(Pam)2 -Gly-Gly-Gly-Glu(O^t Bu)-Thr(^t Bu)-Thr(^t Bu)-O^t Bu”, the step yield (late stage modification step) is reported as 90%.

Work on “N^α -Boc-Orn-Gly-Gly-Glu(O^t Bu)-O^t Bu hydrochloride” yielded a step yield [1] of 86%.

Work on “N^δ -Z--N^α -Boc-Orn-Gly-Gly-Glu(O^t Bu)-O^t Bu” yielded a step yield (coupling step) of 100%.

Work on “Pam-Dhc(Pam)2 -Gly-Gly-Gly-Glu(O^t Bu)-Thr(^t Bu)-Thr(^t Bu)-O^t Bu” yielded a step yield (lipidation step) of 70%.

In the case of “Pam-Dhc(Pam)2 -Gly-Gly-Gly-Glu-Thr-Thr-OH”, the step yield (late stage modification step) is reported as 98%.
